In PubChem BioAssay AID1347076 (National Center for Advancing Translational Sciences (NCATS), 2019):
Out of some 400,000 compounds screened, about 13,000 (3.2%) were called active. The shares of active, inactive and inconclusive entries below differ from those in the screen. The call rests on the fitted dose curve; in most records, active means well fitted cell-killing curve with a large enough effect; inconclusive means small, poorly fitted or top-dose-only effect, or effect the other way; inactive means flat fitted curve, though single readings scatter. A potency beside an inconclusive call is a rough fit, not a confirmed value.

Assay: qHTS assay for MDR1-selective chemotherapeutics: Primary screen using the drug-selected MDR subline cells KB-V1; further: nearly all actives have a fitted effect of over 60% in size
Conditions: KB-V1 MDR cells viability, CellTiter-Glo, 72 h; series mostly up to 46.1 µM
How it was run: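 Cells of the MDR subline KB-V1 are plated, dosed with compound at multiple concentrations, and incubated 72 h at 37 degrees C; CellTiter-Glo is then added and luminescence read after 10 min.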
Potency means the concentration at half of the fitted maximal effect.

Compound	Potency
COc1cc(C(=O)NC(CCSC)C(=O)Nc2ccc(N3CCOCC3)cc2)cc(OC)c1OC (stereo not drawn)	inactive
CC(C)C(=O)Nc1ccc(C(=O)NNC(=O)NC2CCCCC2)cc1	inconclusive: 0.291 µM [rising, full curve]
CCC(=O)Nc1ccc(CC)cc1-c1nc2ccccc2n(CC(=O)Nc2ccccc2C)c1=O	inactive
COc1ccccc1N1CCN(C2CCN(S(=O)(=O)c3ccc4ccccc4c3)CC2)CC1	inconclusive: 23.1 µM [cytotoxic, single point]
COc1ccc(/C=N/NC(=O)CN2CCSCC2)cc1C	inconclusive: 29.1 µM [rising, partial curve, poor fit]
COc1cc(CCC(=O)OCC(=O)Nc2ccc(F)cc2F)cc(OC)c1OC	inconclusive: 29.1 µM [rising, single point]
O=C(CSc1nc2ccccc2nc1Cc1ccccc1F)Nc1cccc(C(F)(F)F)c1	inactive
CCn1c(=N)c(S(=O)(=O)c2ccc(F)cc2)cc2c(=O)n3ccccc3nc21	inconclusive: 1.03 µM [cytotoxic, partial curve, poor fit]
COc1ccc(-c2cc(C(F)(F)F)nc(SCC(=O)NCc3cccs3)n2)cc1OC	inconclusive: 3.66 µM [cytotoxic, partial curve]
Cc1cc2[nH]c(=O)c(=O)[nH]c2cc1S(=O)(=O)Nc1ccccc1F	inconclusive: 2.59 µM [rising, full curve, poor fit]
COCc1ccc(CN2CCCC(CO)(Cc3ccccc3)C2)o1 (stereo not drawn)	inconclusive: 20.6 µM [cytotoxic, single point]
Cc1ccc(NC(=S)N(CCN(C)C)C(C)c2ccco2)cc1Cl (stereo not drawn)	inactive
COc1ccccc1-c1cc(C(F)(F)F)nc(S(=O)(=O)CCCC(=O)Nc2cc(C)on2)n1	inconclusive: 18.4 µM [cytotoxic, single point]
COC(=O)C1=CN(CCOC23CC4CC(CC(C4)C2)C3)C=C(C(=O)OC)C1c1ccsc1	inconclusive: 2.59 µM [cytotoxic, full curve]
CCOc1ccc(-c2cc(C(=O)NCCCOC)c3c(-c4ccc(CC)cc4)[nH]nc3n2)cc1	inactive
CC(=O)N1c2ccccc2N(Cc2ccc(C)cc2C)C(=O)C1(C)C	inconclusive: 2.91 µM [cytotoxic, full curve, poor fit]
O=C(CNC(=O)Cn1ccc2ccccc2c1=O)NCCCN1CCN(c2cccc(Cl)c2)CC1	inactive
CC(C)c1ccc(OCC(=O)N(Cc2ccccc2)c2ccccn2)cc1	inconclusive: 32.6 µM [cytotoxic, single point]

A different layout for some results above:

| Compound | Potency |
| --- | --- |
| COCc1ccc(CN2CCCC(CO)(Cc3ccccc3)C2)o1 (stereo not drawn) | inconclusive: 20.6 µM [cytotoxic, single point] |
| COC(=O)C1=CN(CCOC23CC4CC(CC(C4)C2)C3)C=C(C(=O)OC)C1c1ccsc1 | inconclusive: 2.59 µM [cytotoxic, full curve] |
